Experiment [1] addresses Flag-LDHB (UniProt P07195). Put plainly: co-IP; HEK293T cells co-transfected with Myc-TERT and Flag-LDHB or Flag-DKC1; lysates treated with RNase A (0.1mg/ml) before anti-Flag IP; blot with anti-Myc and anti-Flag.
In experiment [2] the target is Flag-LDHB (UniProt P07195). The experiment in a line: co-IP; 293T cells co-transfected with Myc-TERT and a Flag-tagged protein; NP40 lysis buffer (25 mM HEPES-KOH pH 7.5, 1.5 mM MgCl2, 150 mM KCl, 0.5% NP40, 10% glycerol, 5 mM beta-mercaptoethanol); anti-flag M2 affinity gel, 4°C, 4 h; blot with anti-Myc and anti-Flag.

Protein sequences, listed by entry. Tags and fused reporters are not part of them.
UniProt O14746: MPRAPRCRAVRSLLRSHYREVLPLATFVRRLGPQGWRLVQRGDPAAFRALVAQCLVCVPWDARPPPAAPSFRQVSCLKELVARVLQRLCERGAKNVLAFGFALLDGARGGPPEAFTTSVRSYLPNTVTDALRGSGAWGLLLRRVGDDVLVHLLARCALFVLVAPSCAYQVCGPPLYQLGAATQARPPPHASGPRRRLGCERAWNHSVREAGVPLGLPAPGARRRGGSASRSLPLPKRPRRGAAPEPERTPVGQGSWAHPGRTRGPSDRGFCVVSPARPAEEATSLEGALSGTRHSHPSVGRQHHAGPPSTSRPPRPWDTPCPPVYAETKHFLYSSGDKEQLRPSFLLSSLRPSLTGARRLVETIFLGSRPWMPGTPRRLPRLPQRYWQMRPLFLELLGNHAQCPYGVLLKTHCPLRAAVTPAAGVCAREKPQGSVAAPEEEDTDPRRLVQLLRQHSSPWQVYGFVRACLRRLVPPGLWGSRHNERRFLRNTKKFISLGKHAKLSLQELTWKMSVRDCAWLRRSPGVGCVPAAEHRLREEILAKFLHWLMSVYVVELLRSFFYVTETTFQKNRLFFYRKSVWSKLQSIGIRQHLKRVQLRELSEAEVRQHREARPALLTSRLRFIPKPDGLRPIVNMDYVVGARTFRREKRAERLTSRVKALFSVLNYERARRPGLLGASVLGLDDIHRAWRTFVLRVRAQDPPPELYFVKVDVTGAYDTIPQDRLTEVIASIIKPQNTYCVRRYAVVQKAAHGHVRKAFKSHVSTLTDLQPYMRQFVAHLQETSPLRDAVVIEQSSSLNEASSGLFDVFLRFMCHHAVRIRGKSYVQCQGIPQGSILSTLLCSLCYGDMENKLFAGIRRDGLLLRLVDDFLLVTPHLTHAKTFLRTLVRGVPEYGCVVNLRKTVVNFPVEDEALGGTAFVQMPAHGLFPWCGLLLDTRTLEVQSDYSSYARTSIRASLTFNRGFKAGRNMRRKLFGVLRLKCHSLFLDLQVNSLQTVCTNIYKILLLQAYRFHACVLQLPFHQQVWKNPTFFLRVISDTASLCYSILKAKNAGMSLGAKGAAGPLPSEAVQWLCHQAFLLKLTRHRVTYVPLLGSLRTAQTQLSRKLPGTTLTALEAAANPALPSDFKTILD

These are yes or no findings as the source states them, for the method shown. In cells and extracts the contact can be indirect. Some entries that bind do so weakly or less than the wild type.

In the case of Myc-TERT (from UniProt O14746 1-1132), the binding entry with Flag-LDHB [1] and with Flag-LDHB [2] was “binds” throughout.

The record behind these values is paper PMC9163669.
